Inconclusive means that the source gave no clear call. Such entries were picked first, then a sample of the others. Where the call is inconclusive, the potency comes from a doubtful curve fit. Activity calls are given as the source filed them. The calls were made as follows: active = hit-call score of the fitted dose curve at least 0.9, where 1 is the maximum; inconclusive = response in the unintended direction; inactive = score below 0.9.
Assay: Tanguay_ZF_120hpf_TRUN_legacy: (Legacy) Oregon State University Tanguay Lab 120 Hour Post-fertilization zebrafish Assay for Truncated Body (AID 2283655)
In short: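 Binary presence/absence of truncated body is recorded at 120 hpf by brightfield, with non-mortality endpoints skipped after death. Exposure is static from 6 hpf in sealed dark plates at 28C, using dechorionated wild-type zebrafish, 0.64% DMSO.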

Compound	AC50	outcome
CC(=O)OC/C=C(\C)CCC=C(C)C	inconclusive: 23.2 µM	
C[C@]12C=CC(=O)C=C1CC[C@@H]1[C@@H]2C(=O)C[C@@]2(C)[C@H]1CC[C@]2(O)C(=O)CO	inconclusive: 16.9 µM	
O=C(c1ccc(OCCN2CCCCC2)cc1)c1c(-c2ccc(O)cc2)sc2cc(O)ccc12		inactive
CNCc1cc(F)ccc1Oc1ccc(Cl)c(Cl)c1	inconclusive: 202 µM	
CC[C@@H]1C[C@H](N(Cc2cc(C(F)(F)F)cc(C(F)(F)F)c2)C(C)=O)c2cc(C(F)(F)F)ccc2N1C(=O)OC(C)C	inconclusive: 55.3 µM	
CCO[Si](CCCNC(N)=O)(OCC)OCC		inactive
O=C(O)c1ccccc1-n1cc(C(=O)O)c(=O)c2cc(Nc3c(F)cc(F)cc3Cl)c(Cl)cc21	inconclusive: 3.76 µM	
CC(C)CCCCCCOC(=O)C1CCCCC1C(=O)OCCCCCCC(C)C (stereo unspecified)		inactive
COC(=O)c1ccc(O)cc1		inactive
N[C@@H](Cc1cc(I)c(Oc2ccc(O)c(I)c2)c(I)c1)C(=O)O		inactive
CCCCOC(=O)C(C)Oc1ccc(Oc2ccc(C(F)(F)F)cn2)cc1 (stereo unspecified)	inconclusive: 169 µM	

A second format for two compounds above.
Compound | AC50 | outcome
CNCc1cc(F)ccc1Oc1ccc(Cl)c(Cl)c1 | inconclusive: 202 µM | 
CC[C@@H]1C[C@H](N(Cc2cc(C(F)(F)F)cc(C(F)(F)F)c2)C(C)=O)c2cc(C(F)(F)F)ccc2N1C(=O)OC(C)C | inconclusive: 55.3 µM | 
